From patent US20130022980 come the findings set out here.

The exact form of at least one protein or probe is not confirmed. For some of these results: The comparison behind a weaker result is the experiment's own reference, which may not be listed here. For some of these results: Tags and fusion partners may be left off the protein sequences shown.

Common to all, as to assay: EMSA
A general note: Mobility shift assays separate free from complexed probe on a gel.

Data set [1] deals with Klenow exo- DNA polymerase (Escherichia coli) (UniProt P00582). To be noted: 1x ThermoPol buffer, primer present; no shift comparable to fusion.
Data set [2] concerns the target T1, T4 exo- DNA polymerase-Tbr SSB fusion (Bacteriophage T4 / Thermus brockianus) (UniProt P04415).
T1 sequence: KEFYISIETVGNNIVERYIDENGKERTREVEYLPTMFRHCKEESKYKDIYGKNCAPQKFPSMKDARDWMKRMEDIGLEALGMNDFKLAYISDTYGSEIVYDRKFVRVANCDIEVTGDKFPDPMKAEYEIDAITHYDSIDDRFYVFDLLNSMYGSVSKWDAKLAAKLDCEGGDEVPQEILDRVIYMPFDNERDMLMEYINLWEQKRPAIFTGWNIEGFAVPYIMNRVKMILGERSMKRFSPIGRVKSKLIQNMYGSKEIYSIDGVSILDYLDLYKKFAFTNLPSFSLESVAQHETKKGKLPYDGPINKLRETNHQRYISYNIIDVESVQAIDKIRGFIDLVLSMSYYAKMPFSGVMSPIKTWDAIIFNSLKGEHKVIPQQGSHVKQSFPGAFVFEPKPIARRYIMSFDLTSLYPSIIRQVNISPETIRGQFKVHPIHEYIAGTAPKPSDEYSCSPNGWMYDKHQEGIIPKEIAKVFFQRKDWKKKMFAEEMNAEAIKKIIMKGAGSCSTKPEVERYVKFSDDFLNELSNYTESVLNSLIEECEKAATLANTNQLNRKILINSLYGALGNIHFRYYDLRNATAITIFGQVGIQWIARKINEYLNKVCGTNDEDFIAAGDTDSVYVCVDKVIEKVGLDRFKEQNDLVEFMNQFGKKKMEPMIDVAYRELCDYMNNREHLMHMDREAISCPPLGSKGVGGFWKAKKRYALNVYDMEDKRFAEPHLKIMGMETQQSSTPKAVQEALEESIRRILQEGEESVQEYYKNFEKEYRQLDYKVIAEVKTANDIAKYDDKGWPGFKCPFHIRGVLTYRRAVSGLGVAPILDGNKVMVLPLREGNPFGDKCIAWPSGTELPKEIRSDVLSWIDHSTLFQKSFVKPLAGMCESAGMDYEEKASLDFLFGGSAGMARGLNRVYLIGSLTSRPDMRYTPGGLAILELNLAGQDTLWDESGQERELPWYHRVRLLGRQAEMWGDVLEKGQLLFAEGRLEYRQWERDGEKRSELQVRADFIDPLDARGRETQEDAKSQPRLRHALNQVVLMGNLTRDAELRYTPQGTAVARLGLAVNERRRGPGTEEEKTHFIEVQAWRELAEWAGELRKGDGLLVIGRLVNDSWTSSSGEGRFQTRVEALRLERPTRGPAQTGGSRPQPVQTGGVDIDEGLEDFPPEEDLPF
Conditions: 1x ThermoPol buffer, primer present; mobility shift relative to unfused T4 polymerase; protein details: C-terminal Tbr SSB fusion.

The target in data set [3] is Klenow exo- DNA polymerase-Tbr SSB fusion (Escherichia coli / Thermus brockianus) (UniProt P00582). Conditions: 1x ThermoPol buffer, primer present; mobility shift relative to unfused Klenow; protein details: C-terminal Tbr SSB fusion.
In data set [4] the target is T2, T4 exo- DNA polymerase (Bacteriophage T4) (UniProt P04415).
T2 sequence: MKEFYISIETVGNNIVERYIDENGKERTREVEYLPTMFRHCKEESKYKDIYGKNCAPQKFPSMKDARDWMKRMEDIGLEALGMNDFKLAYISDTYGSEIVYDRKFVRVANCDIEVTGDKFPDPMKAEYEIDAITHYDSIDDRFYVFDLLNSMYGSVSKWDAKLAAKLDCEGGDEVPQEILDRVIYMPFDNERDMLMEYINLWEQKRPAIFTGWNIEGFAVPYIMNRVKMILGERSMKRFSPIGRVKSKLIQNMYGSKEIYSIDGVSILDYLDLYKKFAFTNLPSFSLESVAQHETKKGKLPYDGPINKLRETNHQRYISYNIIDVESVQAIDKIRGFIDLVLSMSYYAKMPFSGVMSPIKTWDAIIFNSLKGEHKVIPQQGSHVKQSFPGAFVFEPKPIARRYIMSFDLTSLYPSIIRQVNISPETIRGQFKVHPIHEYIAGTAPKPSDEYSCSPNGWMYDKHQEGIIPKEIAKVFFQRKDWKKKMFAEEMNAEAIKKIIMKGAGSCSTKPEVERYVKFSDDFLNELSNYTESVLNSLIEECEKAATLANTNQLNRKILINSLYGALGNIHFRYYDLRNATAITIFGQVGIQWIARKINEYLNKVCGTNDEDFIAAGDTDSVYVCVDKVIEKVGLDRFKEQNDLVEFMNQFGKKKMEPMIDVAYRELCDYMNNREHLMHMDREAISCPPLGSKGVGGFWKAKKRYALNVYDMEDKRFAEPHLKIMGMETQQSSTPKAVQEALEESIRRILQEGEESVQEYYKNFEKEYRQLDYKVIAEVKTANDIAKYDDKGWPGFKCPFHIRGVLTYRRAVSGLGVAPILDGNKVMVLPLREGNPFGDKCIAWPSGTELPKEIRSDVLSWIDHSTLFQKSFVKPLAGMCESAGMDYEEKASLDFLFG
Conditions: 1x ThermoPol buffer, primer present; no shift comparable to fusion.

As to “CGCCAGGGTTTTCCCAGTCACGAC [M13 ssDNA with annealed primer]”, the binding result is “binds more weakly” in data set [1], “binds” in data set [2], “binds” in data set [3] and “binds more weakly” in data set [4].
